For 25 molecules, T/C and survivor count results are on record in PubChem BioAssay AID330 (DTP/NCI, 2004).

The list is a part of this screen's results and no random one: it gathers tests that were run many times, whatever their T/C, doses with no T/C, and many T/C values between a quarter and a half above the control. Other doses and runs of a compound stand elsewhere. T/C is the treated group as % of the vehicle group. Some doses have a count of surviving animals in place of a T/C: the source holds a T/C of zero for them, seemingly a mark for toxic or unscored doses. Some survivor counts are full or nearly so, which does not show that the dose was tolerated: survival well below the control is almost never listed, so the zero probably covers shortened survival too. Survivors were counted at the toxicity check, usually on the fifth day, unless a day is given; later deaths do not show. Schedules are NCI's codes, taken here to give the interval after Q, in days (D) or hours (H), and the number of doses after X. Some structures stand for samples that the source files as different forms (salt, stereo form or complex); doses refer to the form tested. Some entries hold several experiments; the values are given in rising order. Counts like (3×) give the number of equal values in this list. For survival time, the PubChem record calls one and a half times the control and up active, and a quarter to a half above the control has no call in these data; cut-offs in other NCI protocols can differ. Some T/C values carry the count of animals alive at the toxicity check (mostly the fifth day); where none is given, no animal had died by that day.

The test system of this assay is P388 leukemia ip, CD2F1 mice, survival T/C. As to the kind of experiment: NCI In Vivo Anticancer Drug Screen. Data for tumor model P388 Leukemia (intraperitoneal) in CD2F1 (CDF1) mice. The following applies: T/C endpoint: median survival time, higher T/C = longer survival.
Setting [1] is: dose: 100.0 mg/kg/injection, schedule: Q01DX009 (ip), vehicle: Klucel (hydroxypropylcellulose) (HPC).
Setting [2] is: dose: 200.0 mg/kg/injection, schedule: Q01DX009 (ip), vehicle: Klucel (hydroxypropylcellulose) (HPC).
[3] abbreviates: dose: 200.0 mg/kg/injection, schedule: Q01DX009 (ip), vehicle: saline.
Setting [4] is: dose: 100.0 mg/kg/injection, schedule: Q04DX003 (ip), vehicle: saline with Tween-80.
[5] abbreviates: dose: 200.0 mg/kg/injection, schedule: Q04DX003 (ip), vehicle: saline with Tween-80.
[6] abbreviates: dose: 400.0 mg/kg/injection, schedule: Q04DX003 (ip), vehicle: saline with Tween-80.
Setting [7] is: dose: 200.0 mg/kg/injection, schedule: Q01DX005 (ip), vehicle: Klucel (hydroxypropylcellulose) (HPC).
[8] abbreviates: dose: 240.0 mg/kg/injection, schedule: Q01DX005 (ip), vehicle: saline with Tween-80.
Setting [9] is: dose: 600.0 mg/kg/injection, schedule: Q01DX009 (ip), vehicle: saline.

Turning to `O=C(O)c1cc(Cc2ccc(O)c(C(=O)O)c2)ccc1O` (tested in a mixture with another compound), under setting [1], the T/C was 125 % of control. Besides, the survivor count under setting [2] was 1 of 6 and 2 of 6. Consider `CCOC(=O)C/C(C)=N\N(C)C(N)=O`, for which the survivor count under setting [3] is 6 of 6. Regarding `CCC[CH2][Pb]([CH2]CCC)([O]C(C)=O)[O]C(C)=O`, the survivor count is, setting by setting: (dose: 6.25 mg/kg/injection, schedule: Q04DX003 (ip), vehicle: saline with Tween-80) 3 of 6; (dose: 12.5 mg/kg/injection, schedule: Q04DX003 (ip), vehicle: saline with Tween-80) 0 of 6; (dose: 25.0 mg/kg/injection, schedule: Q04DX003 (ip), vehicle: saline with Tween-80) 0 of 6; under setting [4], 0 of 6; under setting [5], 0 of 6; under setting [6], 0 of 6. In the case of `CC1C(=O)OC2C1CCC1(C)C=CC(=O)C(C)C21` (centres undefined), the survivor count (dose: 50.0 mg/kg/injection, schedule: Q04DX002 (ip), vehicle: saline with Tween-80) was 1 of 6.

As for `O=C(/C=C/c1ccc(Cl)cc1)c1ccccc(=O)c1O`, the survivor count under setting [7] is recorded as 3 of 6. `N#CN(Cc1ccccc1)C(c1ccccc1)(c1ccccc1)c1ccccc1`: for the setting “dose: 400.0 mg/kg/injection, schedule: Q01DX001 (ip), vehicle: Klucel (hydroxypropylcellulose) (HPC)”, the survivor count is given as 6 of 6. Consider `CN(C)c1ccc(/C=N/N=C(/C#N)[S][Sn]([S]/C(C#N)=N/N=C/c2ccc(N(C)C)cc2)([c]2ccccc2)[c]2ccccc2)cc1`, for which the survivor count (dose: 30.0 mg/kg/injection, schedule: Q01DX005 (ip), vehicle: saline with Tween-80) is recorded as 3 of 6; the survivor count (dose: 60.0 mg/kg/injection, schedule: Q01DX005 (ip), vehicle: saline with Tween-80) is listed as 0 of 6; the survivor count (dose: 120.0 mg/kg/injection, schedule: Q01DX005 (ip), vehicle: saline with Tween-80) is recorded as 0 of 6; the survivor count under setting [8] is 0 of 6. Take `COC(=O)/C=C(\C)Oc1cc(Cl)c(Cl)cc1Cl`: for the setting “dose: 200.0 mg/kg/injection, schedule: Q01DX009 (ip), vehicle: saline with Tween-80”, the survivor count is reported as 6 of 6. Regarding `CSc1nc2ccc(NC(=O)CCC(=O)O)cc2s1`, the survivor count reads like this: (dose: 50.0 mg/kg/injection, schedule: Q01DX009 (ip), vehicle: Klucel (hydroxypropylcellulose) (HPC)) 6 of 6; under setting [1], 6 of 6; under setting [2], 6 of 6.

Consider `O=c1oc(-c2ccccc2)nc2c1CCCS2`, for which the survivor count (dose: 50.0 mg/kg/injection, schedule: Q01DX005 (ip), vehicle: Klucel (hydroxypropylcellulose) (HPC)) is recorded as 6 of 6. On to `Cc1ccc2occ(-c3nnc(NC(=O)c4ccccc4)s3)c(=O)c2c1`, for which, under setting [8], the survivor count is reported as 5 of 6.

For the molecule `C=C(C)C(=O)OC1CCC2(C)C(CCC3C2CCC2(C)C(c4ccc(=O)oc4)CCC32O)C1` (centres undefined), where the note is “dose: 100.0 mg/kg/injection, schedule: Q01DX009 (ip), vehicle: saline”, the survivor count is 5 of 6. Turning to `[O-][n+]1c2ccccc2cc2c1c1ccccc1n2O`, the survivor count reads like this: (dose: 100.0 mg/kg/injection, schedule: Q01DX005 (ip), vehicle: Klucel (hydroxypropylcellulose) (HPC)) 2 of 6; under setting [7], 0 of 6. As to `N#CCCCCCBr`, the survivor count (dose: 400.0 mg/kg/injection, schedule: Q01DX009 (ip), vehicle: saline with Tween-80) is on record as 0 of 6. As to `O=C1C=CC(=O)N1c1ccc(-c2nc3ccccc3o2)cc1`, the survivor count (dose: 50.0 mg/kg/injection, schedule: Q01DX005 (ip), vehicle: saline with Tween-80) was 3 of 5; the survivor count (dose: 100.0 mg/kg/injection, schedule: Q01DX005 (ip), vehicle: saline with Tween-80) was 0 of 5 and 1 of 5. In the case of `CC(C)(C)N(C(=O)OCC1c2ccccc2-c2ccccc21)C(CO)C(=O)O` (centres undefined), under setting [7], the survivor count is 2 of 6. For the molecule `COc1ccc(/C=c2\sc3nc(-c4ccccc4)nn3c2=O)cc1`, the survivor count under setting [2] is 5 of 6. For `NCCc1ccc(O)c(O)c1`, the T/C was 129 and 140 % of control (dose: 150.0 mg/kg/injection, schedule: Q01DX009 (ip), vehicle: saline); 137 [5 of 6 alive] and 140 % of control (dose: 300.0 mg/kg/injection, schedule: Q01DX009 (ip), vehicle: saline); 138 % of control under setting [9]. Also, the survivor count was 3 of 6 under setting [9] and 2 of 6 (dose: 1200.0 mg/kg/injection, schedule: Q01DX009 (ip), vehicle: saline). `NCCc1ccc(N)cc1`: the survivor count is reported as 5 of 6 under setting [3] and 0 of 6 (dose: 400.0 mg/kg/injection, schedule: Q01DX009 (ip), vehicle: saline). With `COc1ccc(CC[n+]2cccc(C(=O)c3ccccc3)c2)cc1OC`, the survivor count is, setting by setting: (dose: 100.0 mg/kg/injection, schedule: Q04DX002 (ip), vehicle: saline) 6 of 6; (dose: 200.0 mg/kg/injection, schedule: Q04DX002 (ip), vehicle: saline) 0 of 6; (dose: 400.0 mg/kg/injection, schedule: Q04DX002 (ip), vehicle: saline) 0 of 6. As for `COC(=O)c1cc(=O)n(-c2ccccc2C)c(SC)n1`, for the setting “dose: 400.0 mg/kg/injection, schedule: Q04DX002 (ip), vehicle: Klucel (hydroxypropylcellulose) (HPC)”, the survivor count is 0 of 6. With `CC(=NC(C)(C)C)N1CCCC1`, the survivor count runs as follows: (dose: 50.0 mg/kg/injection, schedule: Q01DX005 (ip), vehicle: saline) 5 of 5; (dose: 100.0 mg/kg/injection, schedule: Q01DX005 (ip), vehicle: saline) 0 of 5; (dose: 200.0 mg/kg/injection, schedule: Q01DX005 (ip), vehicle: saline) 0 of 5 (2×). Consider `COC(=O)C1c2ccccc2CC(=O)N1NC(=O)c1ccccc1` (centres undefined), for which the survivor count under setting [2] is recorded as 0 of 6. As for `CS(=O)(=O)Nc1ccc(Nc2c3ccccc3nc3cc(N)ccc23)cc1`, the survivor count is 2 of 6 under setting [4], 3 of 6 under setting [5] and 0 of 6 under setting [6]. Consider `O=C(O)c1ccc(OCc2ccccc2)cc1`, for which the survivor count under setting [3] is listed as 6 of 6.
